{"sequences": {"note": "Protein sequences, listed by entry. Tags and fused reporters are not part of them. Lines headed by an entry give the natural chain unless they say otherwise; changes in a name come on top.", "UniProt Q14CS0": "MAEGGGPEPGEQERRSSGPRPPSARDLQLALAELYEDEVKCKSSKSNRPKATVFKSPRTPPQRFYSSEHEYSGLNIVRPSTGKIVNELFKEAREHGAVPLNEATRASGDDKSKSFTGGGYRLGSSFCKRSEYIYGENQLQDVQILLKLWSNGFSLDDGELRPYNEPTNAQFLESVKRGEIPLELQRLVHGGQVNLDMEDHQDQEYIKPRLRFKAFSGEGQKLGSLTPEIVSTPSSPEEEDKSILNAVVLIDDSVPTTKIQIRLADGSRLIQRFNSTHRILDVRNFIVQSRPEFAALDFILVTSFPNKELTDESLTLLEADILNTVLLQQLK", "UniProt Q16881, whole entry, looked up": "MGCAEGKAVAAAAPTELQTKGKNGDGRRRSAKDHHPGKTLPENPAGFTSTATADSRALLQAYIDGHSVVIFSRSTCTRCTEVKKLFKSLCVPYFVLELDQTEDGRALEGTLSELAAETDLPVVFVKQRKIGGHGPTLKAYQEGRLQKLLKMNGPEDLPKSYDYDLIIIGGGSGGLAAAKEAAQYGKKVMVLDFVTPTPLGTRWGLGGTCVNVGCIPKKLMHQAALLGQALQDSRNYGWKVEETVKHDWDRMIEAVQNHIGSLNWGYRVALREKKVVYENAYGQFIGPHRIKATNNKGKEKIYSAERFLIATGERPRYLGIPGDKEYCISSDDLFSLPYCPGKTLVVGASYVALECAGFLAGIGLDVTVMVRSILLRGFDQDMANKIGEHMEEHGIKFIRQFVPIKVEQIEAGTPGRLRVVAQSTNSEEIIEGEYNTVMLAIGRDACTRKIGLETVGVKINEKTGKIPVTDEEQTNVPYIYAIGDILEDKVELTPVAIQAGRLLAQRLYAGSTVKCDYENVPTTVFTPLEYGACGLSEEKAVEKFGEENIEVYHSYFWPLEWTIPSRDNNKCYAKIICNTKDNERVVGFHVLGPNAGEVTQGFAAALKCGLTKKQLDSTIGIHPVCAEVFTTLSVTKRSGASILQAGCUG", "UniProt O15042": "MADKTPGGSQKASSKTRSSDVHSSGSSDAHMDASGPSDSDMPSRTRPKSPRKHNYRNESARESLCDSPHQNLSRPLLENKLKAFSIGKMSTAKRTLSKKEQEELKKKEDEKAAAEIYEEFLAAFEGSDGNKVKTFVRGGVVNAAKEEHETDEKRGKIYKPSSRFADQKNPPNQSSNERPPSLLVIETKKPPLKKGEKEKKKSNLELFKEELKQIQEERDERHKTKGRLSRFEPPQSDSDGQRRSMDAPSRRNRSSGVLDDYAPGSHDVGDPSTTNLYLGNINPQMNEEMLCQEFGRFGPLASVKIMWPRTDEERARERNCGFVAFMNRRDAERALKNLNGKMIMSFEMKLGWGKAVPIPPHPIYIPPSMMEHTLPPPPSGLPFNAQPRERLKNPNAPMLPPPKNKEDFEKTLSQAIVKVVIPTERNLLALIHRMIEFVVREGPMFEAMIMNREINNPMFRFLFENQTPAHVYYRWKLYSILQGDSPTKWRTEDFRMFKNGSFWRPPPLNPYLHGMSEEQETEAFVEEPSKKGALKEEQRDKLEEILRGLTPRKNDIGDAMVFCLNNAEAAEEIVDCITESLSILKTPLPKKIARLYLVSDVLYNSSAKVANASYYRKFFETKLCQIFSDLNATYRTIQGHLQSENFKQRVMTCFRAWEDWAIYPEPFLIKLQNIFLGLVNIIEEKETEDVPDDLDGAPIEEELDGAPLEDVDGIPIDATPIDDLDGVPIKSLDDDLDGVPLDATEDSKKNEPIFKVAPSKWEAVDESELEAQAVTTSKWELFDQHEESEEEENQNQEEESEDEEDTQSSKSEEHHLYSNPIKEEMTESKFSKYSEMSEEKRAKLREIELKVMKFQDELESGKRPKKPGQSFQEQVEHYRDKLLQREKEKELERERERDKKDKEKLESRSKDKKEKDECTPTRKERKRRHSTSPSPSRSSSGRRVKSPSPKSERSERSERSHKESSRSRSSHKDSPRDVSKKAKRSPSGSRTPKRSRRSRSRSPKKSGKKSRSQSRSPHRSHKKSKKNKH", "UniProt Q9C0H2": "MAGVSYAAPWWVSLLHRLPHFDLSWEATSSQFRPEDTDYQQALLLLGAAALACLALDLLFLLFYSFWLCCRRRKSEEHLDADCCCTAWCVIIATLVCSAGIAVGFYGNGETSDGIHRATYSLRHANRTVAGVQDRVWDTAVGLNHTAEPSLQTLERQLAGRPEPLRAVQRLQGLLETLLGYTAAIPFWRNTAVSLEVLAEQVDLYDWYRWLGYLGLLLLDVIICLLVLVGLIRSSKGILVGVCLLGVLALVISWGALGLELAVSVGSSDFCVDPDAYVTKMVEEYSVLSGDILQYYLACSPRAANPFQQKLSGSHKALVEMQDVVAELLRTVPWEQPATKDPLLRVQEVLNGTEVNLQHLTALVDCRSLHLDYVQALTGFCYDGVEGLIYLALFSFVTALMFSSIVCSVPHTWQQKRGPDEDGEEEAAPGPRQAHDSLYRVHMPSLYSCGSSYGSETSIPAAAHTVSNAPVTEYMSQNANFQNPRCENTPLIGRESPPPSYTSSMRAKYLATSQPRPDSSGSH", "UniProt Q86VQ3": "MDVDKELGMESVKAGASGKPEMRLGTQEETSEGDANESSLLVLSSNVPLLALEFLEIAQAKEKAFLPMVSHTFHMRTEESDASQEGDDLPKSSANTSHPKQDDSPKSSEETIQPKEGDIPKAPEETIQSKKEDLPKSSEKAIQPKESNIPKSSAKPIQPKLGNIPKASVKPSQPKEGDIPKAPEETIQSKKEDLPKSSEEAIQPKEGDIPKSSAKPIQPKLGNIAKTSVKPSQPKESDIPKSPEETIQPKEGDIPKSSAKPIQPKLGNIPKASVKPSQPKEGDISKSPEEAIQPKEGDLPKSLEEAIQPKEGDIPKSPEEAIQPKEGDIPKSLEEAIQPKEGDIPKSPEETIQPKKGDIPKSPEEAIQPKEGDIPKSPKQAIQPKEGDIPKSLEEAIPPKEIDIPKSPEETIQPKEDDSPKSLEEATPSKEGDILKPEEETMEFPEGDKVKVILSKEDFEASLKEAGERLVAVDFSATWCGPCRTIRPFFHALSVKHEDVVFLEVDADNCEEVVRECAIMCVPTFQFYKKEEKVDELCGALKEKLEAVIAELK", "UniProt O75896": "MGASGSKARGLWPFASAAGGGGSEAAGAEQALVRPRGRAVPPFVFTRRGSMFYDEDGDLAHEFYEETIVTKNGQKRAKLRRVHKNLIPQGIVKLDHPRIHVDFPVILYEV", "UniProt P04350, whole entry, looked up": "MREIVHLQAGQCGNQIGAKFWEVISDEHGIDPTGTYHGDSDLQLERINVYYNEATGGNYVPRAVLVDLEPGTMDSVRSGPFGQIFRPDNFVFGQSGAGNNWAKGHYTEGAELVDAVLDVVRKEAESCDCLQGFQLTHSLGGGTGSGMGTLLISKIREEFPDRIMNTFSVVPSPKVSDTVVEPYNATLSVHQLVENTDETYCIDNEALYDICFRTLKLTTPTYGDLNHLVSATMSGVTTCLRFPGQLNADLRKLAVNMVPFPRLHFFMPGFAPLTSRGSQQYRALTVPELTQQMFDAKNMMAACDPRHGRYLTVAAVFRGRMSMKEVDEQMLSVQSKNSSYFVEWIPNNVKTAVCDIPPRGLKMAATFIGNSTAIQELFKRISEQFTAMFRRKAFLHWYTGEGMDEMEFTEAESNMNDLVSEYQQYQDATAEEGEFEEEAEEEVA", "UniProt O00124": "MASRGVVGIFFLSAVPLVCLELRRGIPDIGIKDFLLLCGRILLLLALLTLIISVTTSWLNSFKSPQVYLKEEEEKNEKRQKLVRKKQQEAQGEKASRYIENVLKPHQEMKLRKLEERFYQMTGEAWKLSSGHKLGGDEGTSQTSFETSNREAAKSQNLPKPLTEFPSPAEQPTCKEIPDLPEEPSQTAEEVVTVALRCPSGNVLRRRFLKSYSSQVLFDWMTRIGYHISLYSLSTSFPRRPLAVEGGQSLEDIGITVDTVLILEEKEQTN", "UniProt P29597": "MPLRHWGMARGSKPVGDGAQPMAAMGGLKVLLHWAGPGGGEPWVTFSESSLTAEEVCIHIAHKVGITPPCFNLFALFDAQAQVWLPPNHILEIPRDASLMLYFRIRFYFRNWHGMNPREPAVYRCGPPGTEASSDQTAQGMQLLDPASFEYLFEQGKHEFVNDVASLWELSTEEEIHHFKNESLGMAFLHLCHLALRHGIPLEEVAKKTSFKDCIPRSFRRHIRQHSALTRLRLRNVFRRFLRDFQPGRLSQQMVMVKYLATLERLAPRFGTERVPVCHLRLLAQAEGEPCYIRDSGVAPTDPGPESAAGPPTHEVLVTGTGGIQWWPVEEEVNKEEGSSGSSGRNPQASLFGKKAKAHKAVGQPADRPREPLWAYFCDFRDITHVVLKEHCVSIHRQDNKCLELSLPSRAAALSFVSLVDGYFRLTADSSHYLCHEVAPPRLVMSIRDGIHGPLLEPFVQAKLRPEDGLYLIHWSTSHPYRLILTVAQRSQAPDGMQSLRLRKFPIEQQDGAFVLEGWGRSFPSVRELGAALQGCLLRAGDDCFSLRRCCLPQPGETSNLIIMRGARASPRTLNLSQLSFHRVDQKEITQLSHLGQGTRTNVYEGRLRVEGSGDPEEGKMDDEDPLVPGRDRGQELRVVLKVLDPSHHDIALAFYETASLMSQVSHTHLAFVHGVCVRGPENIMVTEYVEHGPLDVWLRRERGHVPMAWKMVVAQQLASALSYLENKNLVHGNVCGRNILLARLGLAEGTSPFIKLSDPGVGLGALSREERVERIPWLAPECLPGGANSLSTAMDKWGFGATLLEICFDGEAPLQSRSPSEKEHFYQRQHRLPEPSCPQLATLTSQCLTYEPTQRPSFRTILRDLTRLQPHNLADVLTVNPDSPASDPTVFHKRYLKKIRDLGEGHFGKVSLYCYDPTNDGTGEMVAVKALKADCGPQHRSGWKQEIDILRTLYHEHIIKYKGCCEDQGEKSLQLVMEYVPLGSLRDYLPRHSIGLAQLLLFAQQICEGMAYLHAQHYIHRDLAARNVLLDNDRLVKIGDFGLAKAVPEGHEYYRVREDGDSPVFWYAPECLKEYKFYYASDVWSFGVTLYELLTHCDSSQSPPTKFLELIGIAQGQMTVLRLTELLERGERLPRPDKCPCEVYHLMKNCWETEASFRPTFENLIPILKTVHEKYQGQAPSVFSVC", "UniProt O94941": "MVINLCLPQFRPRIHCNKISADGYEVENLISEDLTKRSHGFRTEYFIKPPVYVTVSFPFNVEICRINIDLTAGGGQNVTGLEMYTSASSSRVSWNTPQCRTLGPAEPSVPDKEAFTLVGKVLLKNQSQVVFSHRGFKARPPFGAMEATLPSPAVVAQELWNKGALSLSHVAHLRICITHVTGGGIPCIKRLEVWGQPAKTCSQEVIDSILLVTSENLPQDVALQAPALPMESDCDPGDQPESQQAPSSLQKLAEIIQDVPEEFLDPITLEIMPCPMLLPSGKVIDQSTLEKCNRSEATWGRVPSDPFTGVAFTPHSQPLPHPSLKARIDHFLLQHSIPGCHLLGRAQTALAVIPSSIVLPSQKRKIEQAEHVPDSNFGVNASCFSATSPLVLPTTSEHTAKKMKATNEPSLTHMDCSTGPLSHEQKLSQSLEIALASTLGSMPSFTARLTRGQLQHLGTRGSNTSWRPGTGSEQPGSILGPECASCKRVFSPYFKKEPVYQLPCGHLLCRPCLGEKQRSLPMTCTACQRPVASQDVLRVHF", "UniProt Q9NNX1": "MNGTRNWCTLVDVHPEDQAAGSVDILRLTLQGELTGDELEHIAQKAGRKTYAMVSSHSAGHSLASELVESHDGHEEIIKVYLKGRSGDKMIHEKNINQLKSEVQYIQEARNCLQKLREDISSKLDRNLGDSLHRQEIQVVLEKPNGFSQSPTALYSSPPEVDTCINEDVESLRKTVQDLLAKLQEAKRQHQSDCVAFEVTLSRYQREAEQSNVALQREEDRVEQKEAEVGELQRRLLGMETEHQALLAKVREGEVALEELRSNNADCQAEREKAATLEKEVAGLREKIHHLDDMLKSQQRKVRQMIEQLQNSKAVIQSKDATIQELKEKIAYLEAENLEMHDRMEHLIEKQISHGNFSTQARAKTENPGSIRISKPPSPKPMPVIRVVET", "UniProt Q9NNW7, whole entry, looked up": "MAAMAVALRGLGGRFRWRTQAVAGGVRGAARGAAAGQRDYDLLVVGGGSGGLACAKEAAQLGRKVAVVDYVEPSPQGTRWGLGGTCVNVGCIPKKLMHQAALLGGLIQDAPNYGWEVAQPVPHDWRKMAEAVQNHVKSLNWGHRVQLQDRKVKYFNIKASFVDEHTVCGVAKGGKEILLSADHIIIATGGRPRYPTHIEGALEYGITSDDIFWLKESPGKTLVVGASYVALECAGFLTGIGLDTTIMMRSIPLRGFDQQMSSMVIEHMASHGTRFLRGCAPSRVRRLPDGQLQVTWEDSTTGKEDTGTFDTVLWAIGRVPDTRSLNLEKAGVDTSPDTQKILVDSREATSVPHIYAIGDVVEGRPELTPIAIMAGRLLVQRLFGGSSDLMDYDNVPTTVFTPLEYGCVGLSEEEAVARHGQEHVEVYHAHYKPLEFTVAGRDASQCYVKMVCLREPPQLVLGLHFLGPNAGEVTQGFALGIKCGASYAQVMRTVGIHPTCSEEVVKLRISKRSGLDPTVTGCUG"}, "source": "the supplement of paper PMC10849652", "note": "The other results are listed elsewhere or left out."}
{"compound": "NCC(=O)Nc1ccc(-n2nc(C(F)(F)F)cc2-c2ccc3c(ccc4ccccc43)c2)cc1", "experiment": "log2 fold change, soluble protein after heating vs DMSO (PISA); higher = thermal stabilisation; K562 lysate, 10 uM; active = over 0.2 and 3.5 SD of the protein, either way, in both replicates (recomputed)", "procedure,_shortened": "(§1)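 K562 pellets were dounce-homogenised in PBS pH 7.4 with 1 mM MgCl2, and the crude extract at 1 mg/mL protein was treated with 10 μM compound for 30 min. Aliquots were heated for 3 min across 48°C-58°C, pooled, and brought to 0.5% NP-40 at 4°C; soluble protein was the supernatant after 21,000xg for 90 min. Soluble protein was quantified by TMTpro 16plex LC-MS/MS with channel sums equalised, and reported as log2 fold change in thermal stability against DMSO controls, with values from duplicates.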"}
{"target": "UBXN2B (UniProt Q14CS0)", "log2 fold change": "inactive: 0.095"}
{"target": "TYRO3 (UniProt Q06418)", "log2 fold change": "inactive: 0.12"}
{"target": "UBE2I (UniProt H3BQQ9)", "log2 fold change": "inactive: 0.013"}
{"target": "TUBGCP5 (UniProt Q96RT8)", "log2 fold change": "inactive: -0.029"}
{"target": "TXNRD1 isoform 7 (UniProt Q16881)", "log2 fold change": "inactive: 0.322"}
{"target": "TUBB8B (UniProt A6NNZ2)", "log2 fold change": "inactive: 0.117"}
{"target": "UBN1 (UniProt Q9NPG3)", "log2 fold change": "inactive: 0.048"}
{"target": "UBAP2L (UniProt F8W726)", "log2 fold change": "inactive: 0.062"}
{"target": "U2AF2 (UniProt K7ELP8)", "log2 fold change": "inactive: 0.006"}
{"target": "U2SURP isoform 2 (UniProt O15042)", "log2 fold change": "inactive: 0.068"}
{"compound": "O=C(CCCCCCC(=O)Nc1ccccc1)NO [vorinostat]", "experiment": "log2 fold change, soluble protein after heating vs DMSO (PISA); higher = thermal stabilisation; K562 lysate, 10 uM; active = over 0.2 and 3.5 SD of the protein, either way, in both replicates (recomputed)", "procedure,_shortened": "as §1"}
{"target": "UBA7 (UniProt P41226)", "log2 fold change": "inactive: 0.088"}
{"target": "UBXN2B (UniProt Q14CS0)", "log2 fold change": "inactive: 0.085"}
{"target": "TTYH3 isoform 4 (UniProt Q9C0H2)", "log2 fold change": "inactive: 0.256"}
{"target": "TUBA8 (UniProt Q9NY65)", "log2 fold change": "inactive: 0.015"}
{"target": "UBA2 (UniProt U3KQ93)", "log2 fold change": "inactive: -0.117"}
{"target": "UBA52 (UniProt P62987)", "log2 fold change": "inactive: 0.088"}
{"target": "UBQLN1 (UniProt H0YEZ9)", "log2 fold change": "inactive: -0.003"}
{"target": "TXNDC2 (UniProt Q86VQ3)", "log2 fold change": "inactive: -0.052"}
{"target": "TUSC2 (UniProt O75896)", "log2 fold change": "inactive: 0.04"}
{"target": "TYW5 (UniProt A2RUC4)", "log2 fold change": "inactive: -0.06"}
{"target": "TXNDC11 (UniProt Q6PKC3)", "log2 fold change": "inactive: 0.138"}
{"target": "TXNRD3 (UniProt Q86VQ6)", "log2 fold change": "inactive: 0.13"}
{"target": "TUBB4A (UniProt P04350)", "log2 fold change": "active: -0.448"}
{"target": "UBXN8 (UniProt O00124)", "log2 fold change": "inactive: -0.124"}
{"target": "TYK2 (UniProt P29597)", "log2 fold change": "inactive: 0.219"}
{"target": "UBOX5 (UniProt O94941)", "log2 fold change": "inactive: -0.231"}
{"target": "TUFT1 (UniProt Q9NNX1)", "log2 fold change": "inactive: 0.128"}
{"target": "TXNRD2 isoform 3 (UniProt Q9NNW7)", "log2 fold change": "active: -0.94"}
{"target": "U2AF1L5 (UniProt P0DN76)", "log2 fold change": "inactive: -0.363"}
{"target": "UBE2L5, A0A1B0GUS4", "log2 fold change": "inactive: 0.178"}
{"target": "U2SURP isoform 2 (UniProt O15042)", "log2 fold change": "inactive: -0.437"}
{"compound": "O=C(O)c1ccc2c(c1)nc(Nc1cccc(Cl)c1)c1ccncc12 [silmitasertib]", "experiment": "log2 fold change, soluble protein after heating vs DMSO (PISA); higher = thermal stabilisation; K562 lysate, 10 uM; active = over 0.2 and 3.5 SD of the protein, either way, in both replicates (recomputed)", "procedure,_shortened": "as §1"}
{"target": "UBA7 (UniProt P41226)", "log2 fold change": "inactive: -0.025"}
{"target": "UBXN2B (UniProt Q14CS0)", "log2 fold change": "inactive: 0.053"}
{"target": "TTYH3 isoform 4 (UniProt Q9C0H2)", "log2 fold change": "inactive: -0.101"}
{"target": "TUBA8 (UniProt Q9NY65)", "log2 fold change": "inactive: 0.074"}
{"target": "UBA2 (UniProt U3KQ93)", "log2 fold change": "inactive: -0.055"}
{"target": "UBA52 (UniProt P62987)", "log2 fold change": "inactive: 0.109"}
{"target": "UBQLN1 (UniProt H0YEZ9)", "log2 fold change": "inactive: 0.103"}
{"target": "TXNDC2 (UniProt Q86VQ3)", "log2 fold change": "inactive: -0.095"}
{"target": "TUSC2 (UniProt O75896)", "log2 fold change": "inactive: 0.069"}
{"target": "TYW5 (UniProt A2RUC4)", "log2 fold change": "inactive: 0.113"}
{"target": "TXNDC11 (UniProt Q6PKC3)", "log2 fold change": "inactive: -0.091"}
{"target": "TXNRD3 (UniProt Q86VQ6)", "log2 fold change": "inactive: -0.1"}
{"target": "TUBB4A (UniProt P04350)", "log2 fold change": "inactive: 0.065"}
{"target": "UBXN8 (UniProt O00124)", "log2 fold change": "inactive: -0.001"}
{"target": "TYK2 (UniProt P29597)", "log2 fold change": "inactive: 0.166"}
{"target": "UBOX5 (UniProt O94941)", "log2 fold change": "inactive: -0.063"}
{"target": "TUFT1 (UniProt Q9NNX1)", "log2 fold change": "inactive: 0.012"}
{"target": "TXNRD2 isoform 3 (UniProt Q9NNW7)", "log2 fold change": "inactive: -0.194"}
{"target": "U2AF1L5 (UniProt P0DN76)", "log2 fold change": "inactive: -0.069"}
{"target": "UBE2L5, A0A1B0GUS4", "log2 fold change": "inactive: 0.215"}
{"target": "U2SURP isoform 2 (UniProt O15042)", "log2 fold change": "inactive: -0.272"}
